Consider three substances from article PMC11201311.

Protein sequences, listed by entry. Tags and fused reporters are not part of them. Lines headed by an entry give the natural chain unless they say otherwise; changes in a name come on top.
UniProt P19484: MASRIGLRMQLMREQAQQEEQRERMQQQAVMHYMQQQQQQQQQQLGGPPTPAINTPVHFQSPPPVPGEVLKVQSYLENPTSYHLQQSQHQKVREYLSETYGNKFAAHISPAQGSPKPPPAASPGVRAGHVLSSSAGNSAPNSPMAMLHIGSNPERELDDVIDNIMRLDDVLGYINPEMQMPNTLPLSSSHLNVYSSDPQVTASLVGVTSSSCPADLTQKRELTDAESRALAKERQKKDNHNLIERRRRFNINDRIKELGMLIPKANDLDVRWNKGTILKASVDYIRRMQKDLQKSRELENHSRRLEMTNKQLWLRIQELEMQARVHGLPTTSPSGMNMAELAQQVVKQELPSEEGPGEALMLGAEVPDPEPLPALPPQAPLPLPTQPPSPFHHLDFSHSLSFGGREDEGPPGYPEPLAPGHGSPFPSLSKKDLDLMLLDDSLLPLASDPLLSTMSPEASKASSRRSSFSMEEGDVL
UniProt P61081: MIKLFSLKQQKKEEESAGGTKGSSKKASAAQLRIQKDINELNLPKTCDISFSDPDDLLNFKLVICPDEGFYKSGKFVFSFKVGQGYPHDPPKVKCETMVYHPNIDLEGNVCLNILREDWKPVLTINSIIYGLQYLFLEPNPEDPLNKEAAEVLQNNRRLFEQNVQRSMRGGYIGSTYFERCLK
UniProt Q14258: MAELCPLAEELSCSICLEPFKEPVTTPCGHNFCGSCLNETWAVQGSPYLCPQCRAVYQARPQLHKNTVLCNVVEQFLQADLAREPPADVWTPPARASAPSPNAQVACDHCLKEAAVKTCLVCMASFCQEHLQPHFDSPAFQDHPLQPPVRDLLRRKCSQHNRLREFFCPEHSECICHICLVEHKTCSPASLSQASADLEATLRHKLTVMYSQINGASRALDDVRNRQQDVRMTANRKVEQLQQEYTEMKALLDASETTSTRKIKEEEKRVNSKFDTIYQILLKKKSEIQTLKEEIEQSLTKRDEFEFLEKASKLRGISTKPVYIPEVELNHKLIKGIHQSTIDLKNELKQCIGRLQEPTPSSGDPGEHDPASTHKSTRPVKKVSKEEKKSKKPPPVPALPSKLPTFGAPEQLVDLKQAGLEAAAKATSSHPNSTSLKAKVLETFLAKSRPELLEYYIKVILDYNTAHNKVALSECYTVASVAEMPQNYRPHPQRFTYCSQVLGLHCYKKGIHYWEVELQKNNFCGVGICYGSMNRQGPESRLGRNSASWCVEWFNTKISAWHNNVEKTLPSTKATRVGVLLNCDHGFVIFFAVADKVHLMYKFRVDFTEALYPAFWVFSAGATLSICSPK

Results are given in words; binding and its absence hold for the method and conditions named. In cells and extracts the contact can be indirect. Some binding calls cover weakened binding; strength is not graded here.

Assay [1] concerns the target TFEB in the co-IP with TRIM25 wild type and K117R (UniProt P19484). Kind of assay: co-IP; TRIM25 wild type or K117R and TFEB; Western blot. For orientation: Immunoblotting shows a protein as a band on a membrane.
The target of assay [2] is NEDD8 conjugating enzyme UBC12, endogenous (human (endogenous in breast cancer cells)) (UniProt P61081). Kind of assay: co-IP; endogenous proteins in breast cancer cells; Co-IP buffer, antibodies with protein A/G magnetic beads overnight at 4 °C; Western blot.
In assay [3] the target is transcription factor EB (TFEB), endogenous (human (endogenous in breast cancer cells)) (UniProt P19484). The description is as above.
Assay [4] shares this target. Kind of assay: co-IP; MDA-MB-231 compared with PTX-resistant MDA-MB-231 cells; TRIM25-TFEB binding by Western blot.

In the case of “TRIM25 wild type, exogenous (Myc-tagged) (from UniProt Q14258 1-630) (enzyme)”, the binding result in assay [1] is “binds”. Still for that read-out and setting: under “TRIM25 K117R (Myc-tagged) (from UniProt Q14258 1-630) (enzyme)” stands “binds”.

With “E3 ubiquitin ligase tripartite motif containing 25 (TRIM25), endogenous (from UniProt Q14258 1-630) (enzyme)”, the binding entry in assay [2], in assay [3] and in assay [4] was “binds” throughout.
